Source: the supplement of paper PMC11006884
What follows is the remainder of the data, with few or none of the targets with a hit. The data scatter; read single values as rough. This is a selection; strong and weak results do not stand in their true shares.

Sequences of proteins named here, by UniProt entry; tags and fusion partners are left off. A change or cut given only in a name is not applied to a line headed by its entry.
UniProt P52272: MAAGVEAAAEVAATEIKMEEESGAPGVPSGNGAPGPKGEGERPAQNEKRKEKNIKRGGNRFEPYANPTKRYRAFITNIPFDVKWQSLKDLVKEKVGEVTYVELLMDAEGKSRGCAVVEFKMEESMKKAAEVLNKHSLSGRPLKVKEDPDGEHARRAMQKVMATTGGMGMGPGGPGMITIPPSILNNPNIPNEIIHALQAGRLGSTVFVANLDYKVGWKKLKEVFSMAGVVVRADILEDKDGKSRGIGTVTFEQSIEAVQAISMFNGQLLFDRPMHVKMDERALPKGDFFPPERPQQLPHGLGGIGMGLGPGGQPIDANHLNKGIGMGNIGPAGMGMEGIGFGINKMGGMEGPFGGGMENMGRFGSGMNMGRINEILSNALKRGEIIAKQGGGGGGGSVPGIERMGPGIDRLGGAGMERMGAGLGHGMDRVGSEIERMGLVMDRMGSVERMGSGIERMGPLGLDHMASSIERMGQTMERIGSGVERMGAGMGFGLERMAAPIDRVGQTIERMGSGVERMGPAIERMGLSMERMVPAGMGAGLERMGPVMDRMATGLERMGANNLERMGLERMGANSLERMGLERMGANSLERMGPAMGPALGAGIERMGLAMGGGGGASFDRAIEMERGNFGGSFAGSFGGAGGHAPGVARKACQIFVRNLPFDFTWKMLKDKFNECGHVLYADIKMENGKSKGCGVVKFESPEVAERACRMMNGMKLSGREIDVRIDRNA
UniProt P51970, whole entry: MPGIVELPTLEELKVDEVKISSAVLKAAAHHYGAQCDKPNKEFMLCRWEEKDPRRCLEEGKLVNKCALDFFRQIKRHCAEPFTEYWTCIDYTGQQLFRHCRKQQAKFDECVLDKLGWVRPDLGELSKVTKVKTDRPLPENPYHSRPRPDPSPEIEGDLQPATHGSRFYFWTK
UniProt P57678: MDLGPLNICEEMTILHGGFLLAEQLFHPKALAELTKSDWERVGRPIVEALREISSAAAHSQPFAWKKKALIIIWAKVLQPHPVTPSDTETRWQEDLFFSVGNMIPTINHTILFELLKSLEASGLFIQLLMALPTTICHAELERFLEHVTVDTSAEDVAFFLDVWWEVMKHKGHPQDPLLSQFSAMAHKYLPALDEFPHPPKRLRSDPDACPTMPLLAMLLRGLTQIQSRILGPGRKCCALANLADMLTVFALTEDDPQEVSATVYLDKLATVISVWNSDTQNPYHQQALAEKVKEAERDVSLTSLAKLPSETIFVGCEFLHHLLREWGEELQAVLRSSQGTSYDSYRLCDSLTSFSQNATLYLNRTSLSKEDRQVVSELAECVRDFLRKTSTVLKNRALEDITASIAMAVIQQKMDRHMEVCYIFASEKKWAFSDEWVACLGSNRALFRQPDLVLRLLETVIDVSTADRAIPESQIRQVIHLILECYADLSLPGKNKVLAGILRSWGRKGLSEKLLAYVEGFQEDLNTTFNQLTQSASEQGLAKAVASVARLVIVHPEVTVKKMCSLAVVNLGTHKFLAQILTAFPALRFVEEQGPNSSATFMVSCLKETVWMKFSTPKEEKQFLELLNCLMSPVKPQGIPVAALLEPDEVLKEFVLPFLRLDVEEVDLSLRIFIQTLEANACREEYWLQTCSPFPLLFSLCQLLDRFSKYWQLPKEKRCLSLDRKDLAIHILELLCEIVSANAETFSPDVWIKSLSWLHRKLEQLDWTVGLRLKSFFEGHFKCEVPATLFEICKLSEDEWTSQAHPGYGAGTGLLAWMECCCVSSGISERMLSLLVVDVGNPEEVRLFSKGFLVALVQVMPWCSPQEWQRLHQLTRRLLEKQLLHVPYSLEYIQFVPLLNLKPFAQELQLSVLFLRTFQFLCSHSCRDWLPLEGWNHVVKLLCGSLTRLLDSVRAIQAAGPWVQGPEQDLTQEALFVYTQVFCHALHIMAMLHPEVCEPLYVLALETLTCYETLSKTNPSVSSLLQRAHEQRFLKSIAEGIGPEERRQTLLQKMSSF
UniProt P57737: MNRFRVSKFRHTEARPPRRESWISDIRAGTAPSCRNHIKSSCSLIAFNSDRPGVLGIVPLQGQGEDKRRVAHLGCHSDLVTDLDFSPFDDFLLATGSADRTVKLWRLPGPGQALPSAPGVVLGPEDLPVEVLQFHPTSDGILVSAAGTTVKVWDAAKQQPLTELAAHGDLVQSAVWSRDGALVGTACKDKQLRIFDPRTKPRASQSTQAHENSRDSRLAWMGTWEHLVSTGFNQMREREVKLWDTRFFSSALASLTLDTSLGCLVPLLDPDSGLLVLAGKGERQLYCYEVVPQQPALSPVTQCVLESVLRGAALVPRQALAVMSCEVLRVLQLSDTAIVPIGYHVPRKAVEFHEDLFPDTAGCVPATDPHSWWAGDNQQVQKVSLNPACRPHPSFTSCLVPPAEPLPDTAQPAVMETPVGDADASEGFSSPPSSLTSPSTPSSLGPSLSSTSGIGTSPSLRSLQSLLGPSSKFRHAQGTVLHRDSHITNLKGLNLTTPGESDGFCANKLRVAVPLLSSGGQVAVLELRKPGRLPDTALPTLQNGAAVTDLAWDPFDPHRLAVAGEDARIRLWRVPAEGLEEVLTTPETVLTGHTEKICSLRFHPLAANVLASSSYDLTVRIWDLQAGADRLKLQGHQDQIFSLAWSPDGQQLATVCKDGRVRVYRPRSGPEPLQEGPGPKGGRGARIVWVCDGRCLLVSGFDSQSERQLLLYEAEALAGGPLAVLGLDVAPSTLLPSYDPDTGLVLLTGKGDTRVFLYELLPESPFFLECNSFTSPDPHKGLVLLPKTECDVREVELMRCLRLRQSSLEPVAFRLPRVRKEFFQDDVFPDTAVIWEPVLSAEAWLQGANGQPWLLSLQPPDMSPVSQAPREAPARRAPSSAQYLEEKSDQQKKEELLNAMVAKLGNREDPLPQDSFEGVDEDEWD
UniProt P52209: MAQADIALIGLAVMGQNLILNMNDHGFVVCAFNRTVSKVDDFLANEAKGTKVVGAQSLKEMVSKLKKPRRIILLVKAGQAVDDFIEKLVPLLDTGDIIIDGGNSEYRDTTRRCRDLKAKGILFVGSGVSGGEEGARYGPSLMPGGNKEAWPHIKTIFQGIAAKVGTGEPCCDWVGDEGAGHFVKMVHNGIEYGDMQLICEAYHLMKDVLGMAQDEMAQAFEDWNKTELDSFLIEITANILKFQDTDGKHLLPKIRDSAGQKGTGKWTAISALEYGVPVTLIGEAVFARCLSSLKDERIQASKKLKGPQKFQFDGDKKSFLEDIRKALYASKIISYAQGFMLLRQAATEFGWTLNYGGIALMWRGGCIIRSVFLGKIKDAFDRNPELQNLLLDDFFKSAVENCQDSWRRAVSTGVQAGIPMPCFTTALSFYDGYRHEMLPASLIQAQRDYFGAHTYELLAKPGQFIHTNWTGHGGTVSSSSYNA
UniProt P60891: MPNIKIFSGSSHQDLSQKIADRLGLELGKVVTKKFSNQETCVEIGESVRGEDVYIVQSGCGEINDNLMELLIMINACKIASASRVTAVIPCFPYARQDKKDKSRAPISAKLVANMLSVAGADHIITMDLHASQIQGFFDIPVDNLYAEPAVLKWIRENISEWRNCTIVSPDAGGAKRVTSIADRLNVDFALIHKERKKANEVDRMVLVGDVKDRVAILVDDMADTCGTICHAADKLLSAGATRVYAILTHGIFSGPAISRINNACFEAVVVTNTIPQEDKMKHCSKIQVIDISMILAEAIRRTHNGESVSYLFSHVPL
UniProt P52948: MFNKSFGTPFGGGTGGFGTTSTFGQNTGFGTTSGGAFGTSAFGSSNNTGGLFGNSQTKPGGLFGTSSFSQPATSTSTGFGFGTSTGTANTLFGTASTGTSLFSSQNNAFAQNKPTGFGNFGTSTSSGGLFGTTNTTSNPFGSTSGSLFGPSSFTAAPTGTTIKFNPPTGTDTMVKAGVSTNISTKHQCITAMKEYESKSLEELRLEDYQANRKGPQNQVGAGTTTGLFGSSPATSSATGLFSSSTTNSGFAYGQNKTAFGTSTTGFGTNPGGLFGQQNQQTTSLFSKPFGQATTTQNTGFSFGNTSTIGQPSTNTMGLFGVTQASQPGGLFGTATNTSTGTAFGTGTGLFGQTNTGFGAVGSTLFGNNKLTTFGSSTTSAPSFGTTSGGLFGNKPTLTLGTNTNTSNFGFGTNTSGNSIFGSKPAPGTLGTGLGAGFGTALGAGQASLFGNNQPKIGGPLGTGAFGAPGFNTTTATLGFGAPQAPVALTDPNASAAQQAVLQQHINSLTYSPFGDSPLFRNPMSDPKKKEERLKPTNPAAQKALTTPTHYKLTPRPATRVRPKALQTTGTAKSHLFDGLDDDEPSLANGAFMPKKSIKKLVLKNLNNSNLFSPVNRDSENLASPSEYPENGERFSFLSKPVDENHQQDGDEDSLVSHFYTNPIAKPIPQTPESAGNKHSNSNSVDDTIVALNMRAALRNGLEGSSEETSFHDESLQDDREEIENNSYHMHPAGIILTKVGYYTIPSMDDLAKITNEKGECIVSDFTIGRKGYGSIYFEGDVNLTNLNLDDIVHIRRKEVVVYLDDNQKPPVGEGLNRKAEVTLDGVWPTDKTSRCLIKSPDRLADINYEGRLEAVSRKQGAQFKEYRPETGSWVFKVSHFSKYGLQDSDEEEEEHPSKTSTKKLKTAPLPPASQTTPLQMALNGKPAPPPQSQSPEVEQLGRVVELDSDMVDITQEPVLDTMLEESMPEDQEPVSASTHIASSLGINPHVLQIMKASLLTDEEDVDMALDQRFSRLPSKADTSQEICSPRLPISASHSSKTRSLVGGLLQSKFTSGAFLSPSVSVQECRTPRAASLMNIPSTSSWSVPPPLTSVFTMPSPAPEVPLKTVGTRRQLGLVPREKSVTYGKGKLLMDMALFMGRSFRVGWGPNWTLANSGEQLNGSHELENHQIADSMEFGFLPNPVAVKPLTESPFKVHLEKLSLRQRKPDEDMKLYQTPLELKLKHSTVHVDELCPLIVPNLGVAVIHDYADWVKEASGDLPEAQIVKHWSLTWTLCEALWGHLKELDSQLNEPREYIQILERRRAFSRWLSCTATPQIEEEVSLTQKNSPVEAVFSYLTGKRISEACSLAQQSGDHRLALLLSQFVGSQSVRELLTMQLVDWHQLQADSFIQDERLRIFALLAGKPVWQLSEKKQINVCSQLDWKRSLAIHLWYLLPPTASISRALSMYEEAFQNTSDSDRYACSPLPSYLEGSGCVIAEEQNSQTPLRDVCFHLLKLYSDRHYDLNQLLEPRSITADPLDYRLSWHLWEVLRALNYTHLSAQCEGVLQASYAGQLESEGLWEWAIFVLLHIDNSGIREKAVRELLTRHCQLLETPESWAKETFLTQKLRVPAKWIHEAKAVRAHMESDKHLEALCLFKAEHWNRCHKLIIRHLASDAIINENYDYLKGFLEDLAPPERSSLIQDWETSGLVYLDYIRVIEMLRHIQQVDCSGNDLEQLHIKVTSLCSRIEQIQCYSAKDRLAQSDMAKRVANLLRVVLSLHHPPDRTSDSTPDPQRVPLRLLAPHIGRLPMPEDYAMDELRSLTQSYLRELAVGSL
UniProt P60174, whole entry, looked up: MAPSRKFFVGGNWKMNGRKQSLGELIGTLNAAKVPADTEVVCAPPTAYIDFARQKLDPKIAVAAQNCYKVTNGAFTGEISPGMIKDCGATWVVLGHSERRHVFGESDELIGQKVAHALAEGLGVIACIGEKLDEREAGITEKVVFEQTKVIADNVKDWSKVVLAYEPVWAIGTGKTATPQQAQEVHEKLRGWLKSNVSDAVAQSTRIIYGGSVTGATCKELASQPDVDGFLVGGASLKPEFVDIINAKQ
UniProt P51659: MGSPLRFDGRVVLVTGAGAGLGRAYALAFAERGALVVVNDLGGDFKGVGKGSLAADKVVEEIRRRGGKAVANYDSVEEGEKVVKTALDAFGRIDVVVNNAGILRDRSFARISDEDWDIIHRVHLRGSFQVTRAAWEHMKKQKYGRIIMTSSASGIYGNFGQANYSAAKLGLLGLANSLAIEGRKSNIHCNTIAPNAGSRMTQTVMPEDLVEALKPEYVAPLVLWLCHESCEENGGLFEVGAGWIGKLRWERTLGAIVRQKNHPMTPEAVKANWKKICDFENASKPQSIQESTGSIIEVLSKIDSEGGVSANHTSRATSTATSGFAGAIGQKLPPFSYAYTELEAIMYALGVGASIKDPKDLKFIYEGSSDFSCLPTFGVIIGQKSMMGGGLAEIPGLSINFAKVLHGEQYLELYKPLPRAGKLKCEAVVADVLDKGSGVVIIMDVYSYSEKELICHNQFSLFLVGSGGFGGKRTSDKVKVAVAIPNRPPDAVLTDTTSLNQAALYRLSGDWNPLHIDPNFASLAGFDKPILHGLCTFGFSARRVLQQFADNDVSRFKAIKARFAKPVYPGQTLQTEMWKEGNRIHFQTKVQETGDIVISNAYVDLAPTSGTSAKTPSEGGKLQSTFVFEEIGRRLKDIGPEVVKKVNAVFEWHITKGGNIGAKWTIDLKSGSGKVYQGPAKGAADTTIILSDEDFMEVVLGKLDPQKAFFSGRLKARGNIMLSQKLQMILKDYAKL

These targets were tested with COC(=O)/C=C/c1ccccc1 [methyl cinnamate] (assay: log2 ratio of iodoacetamide-alkyne labeling of the cysteine site, DMSO over compound (competition); higher = stronger covalent engagement of the cysteine by the compound, active = 1 or more). Conditions: 500 µM; treatment time 1 h; system: HEK293T cell lysate.
Method in brief: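 Three replicates, each with duplicate channels, were prepared from HEK293T lysate (2 mg/mL) treated with vehicle or electrophile at 500 µM for 1 h at ambient temperature. Iodoacetamide alkyne was then applied for 1 h, and samples were clicked to sCIP-TMT reagents, pooled, trypsin-digested overnight at 37 °C, enriched on streptavidin, acid-eluted and analysed on Orbitrap Eclipse LC-MS/MS with FAIMS, with FragPipe quantification. The log2 competition ratio per cysteine is the mean control-channel divided by the mean compound-channel reporter intensity. Cysteines quantified in only one replicate were left out.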

log2 ratio of iodoacetamide-alkyne labeling, inactive:
HNRNPM C676 (UniProt P52272) 0.0291
NDUFA8 C110 (UniProt P51970) 0.268
HCCS C66 (UniProt P53701) 0.167
UniProt P60228_C298 -0.394
RPS3A C111 (UniProt P61247) 0.414
SUOX C310 (UniProt P51687) 0.562
UniProt P55072_C209 0.225
GEMIN4 C382 (UniProt P57678) 0.224
CORO7 C505 (UniProt P57737) 0.269
DRG2 C223 (UniProt P55039) 0.32
YARS C250 (UniProt P54577) 0.402
UniProt P60709_C17 -0.016
PSMD4 C87 (UniProt P55036) 0.182
PGD C422 (UniProt P52209) -0.147
UniProt P60866_C70 0.213
CASP9 C287 (UniProt P55211) 0.212
UniProt P60891_C41 0.294
AK2 C232 (UniProt P54819) -0.441
PLK1 C212 (UniProt P53350) 0.358
PMS2 C216 (UniProt P54278) 0.267
NUP98 C1312 (UniProt P52948) 0.278
PEX3 C283 (UniProt P56589) 0.0579
CSE1L C272 (UniProt P55060) 0.334
HNRNPM C694 (UniProt P52272) 0.172
CSE1L C939 (UniProt P55060) 0.00485
THOP1 C689 (UniProt P52888) 0.378
HNRNPH2 C122 (UniProt P55795) -0.35
ADAR C851 (UniProt P55265) -0.088
KPNA2 C133 (UniProt P52292) 0.141
UniProt P55769_C30 0.292
UniProt P61978_C145 0.141
HNRNPM C114 (UniProt P52272) -0.00706
HNRNPM C653 (UniProt P52272) 0.161
UniProt P61221_C201 0.059
TPI1 C164 (UniProt P60174) -0.243
DGKE C135 (UniProt P52429) 0.107
HSD17B4 C277 (UniProt P51659) -0.0676

At a glance, some entries already given.
log2 ratio of iodoacetamide-alkyne labeling, inactive:
HNRNPH2 C122 (UniProt P55795) -0.35
ADAR C851 (UniProt P55265) -0.088
